The values that follow are results of earlier work, collected in US6884429B2, “Medical devices incorporating deuterated rapamycin for controlled delivery thereof” (Isotechnika International Inc., priority 1997, dated 2005).

For the compound `CO[C@H]1C[C@@H]2CC[C@@H](C)[C@@](O)(O2)C(=O)C(=O)N2CCCC[C@H]2C(=O)O[C@H]([C@H](C)C[C@@H]2CC[C@@H](O)[C@H](OC)C2)CC(=O)[C@H](C)/C=C(\C)[C@@H](O)[C@@H](OC)C(=O)[C@H](C)C[C@H](C)/C=C/C=C/C=C/1C` [Rapamycin], under “alcohols, halogenated hydrocarbons and dimethyl sulfoxide”, the “solubility in alcohols, halogenated hydrocarbons and dimethyl sulfoxide” value was “soluble”. Further, the “solubility in water, aliphatic hydrocarbons and diethyl ether” value (water, aliphatic hydrocarbons and diethyl ether) is “sparingly soluble”.
